Test results as given in US20170175077A1, “CULTURE MEDIUM COMPOSITION AND METHOD OF CULTURING CELL OR TISSUE USING THEREOF” (Nissan Chemical Industries, Ltd., priority 2012, published 2017).

System: HeLa cell spheres
Experiment: Cell suspension test of HeLa cell spheres
Set-up: species or system human
Details: 37° C., 1 hr

With collagen the HeLa cell suspension/sedimentation (0.01% (w/v) in DMEM/F-12 medium) was “sedimentation”, the HeLa cell suspension/sedimentation (0.05% (w/v) in DMEM/F-12 medium) was “suspension” and the HeLa cell suspension/sedimentation (0.1% (w/v) in DMEM/F-12 medium) was “suspension”. The HeLa cell suspension/sedimentation (0.2% (w/v) in DMEM/F-12 medium) was “suspension”.
